Assays:
Test in all cases: Viability assay (96 hours), Alamar Blue
Assay type in all cases: cell-based
OCI-AML3 = conditions: Homo sapiens, OCI-AML-3; OCI-AML3, 96 hours, single agent
Experimental: (§1) AML cell lines were maintained in RPMI 10% FBS medium at 37° C. in a humidified incubator with controlled 5% CO2 atmosphere. Cell freezing and thawing was performed following recommendation from ATCC. Genetic profiling of the cell lines used is available in table 2. Cells were seeded at the optimal density (to guarantee linear growth during the treatment), as previously determined (4000 cells/well, except 16000 cells/well in the case of KASUMI-1 cells), in 96-well plates with 50 μL of medium. Three wells were reserved for each experimental condition; medium-only and vehicle-treated controls were also added for background correction and normalization respectively. After seeding, 50 μL of medium containing 8 serial dilutions (1:3) of ORY-1001 (or any other candidates for combinatorial treatment) were added to the cells. […] Alamar Blue® is a cell viability indicator that uses the natural reducing power of living cells to convert resazurin to the fluorescent molecule, resorufin^43.

HL-60 = conditions: Homo sapiens; HL-60, 96 hours, single agent
Experimental: as §1

THP-1 = conditions: Homo sapiens; THP-1, 96 hours, single agent
Experimental: as §1

OCI-AML2 = conditions: Homo sapiens; OCI-AML2, 96 hours, single agent
Experimental: as §1

MV(4;11) = conditions: Homo sapiens, MV4-11, single agent
Experimental: as §1

MOLM-13 = conditions: Homo sapiens; MOLM-13, 96 hours, single agent
Experimental: as §1

KASUMI-1 = conditions: Homo sapiens; KASUMI-1, 96 hours, single agent
Experimental: as §1

Measured: EC50

O=C(CCCCCCC(=O)Nc1ccccc1)NO [SAHA, suberanilohydroxamic acid]
100 to 1000 nM: all assays above
